Results deposited as PubChem BioAssay AID1259405 (NCATS, 2018).

Aim: 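Silenced genes that increase secreted GFP made by CHO cells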 (primary screen)
Cells: Chinese hamster CHO-K1 ovary cells with stable secreted eGFP expression
Knock-down reagent: single siRNA against mouse genes, 0.8 pmol siRNA per well (2 µl of 400 nM stock)
Time to read-out: 3 days
Measurement: 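Percent of the per-plate non-targeting control median for intracellular GFP per well by laser scanning cytometry and for cell viability by ATP luminescence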
Direction: GFP, % of control: higher = more GFP per well, higher productivity; viability (ATP), % of control: higher = more viable cells (more ATP)
Active means: 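a knock-down is called active if GFP reaches 120% or more of non-targeting control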
In all, the deposit lists about 50,000 reagents; this is a part drawn at random. About 4,000 of all reagents (8%) count as active. 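Mouse siRNA library applied to hamster cells; one well for each siRNA.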 Reagents against one gene are numbered here.

{"gene": "Or5h17 (GeneID 258478)", "reagent no.": 1, "GFP, % of control": 59.5, "viability (ATP), % of control": 92.4, "Outcome": "inactive"}
{"gene": "Or5h17 (GeneID 258478)", "reagent no.": 2, "GFP, % of control": 36.2, "viability (ATP), % of control": 29.9, "Outcome": "inactive"}
{"gene": "Or5h17 (GeneID 258478)", "reagent no.": 3, "GFP, % of control": 43.8, "viability (ATP), % of control": 103, "Outcome": "inactive"}
{"gene": "Pirt (GeneID 193003)", "reagent no.": 1, "GFP, % of control": 49.9, "viability (ATP), % of control": 41.2, "Outcome": "inactive"}
{"gene": "Pirt (GeneID 193003)", "reagent no.": 2, "GFP, % of control": 73.2, "viability (ATP), % of control": 73.6, "Outcome": "inactive"}
{"gene": "Pirt (GeneID 193003)", "reagent no.": 3, "GFP, % of control": 30.5, "viability (ATP), % of control": 63.5, "Outcome": "inactive"}
{"gene": "Dio2 (GeneID 13371)", "reagent no.": 1, "GFP, % of control": 79.4, "viability (ATP), % of control": 102, "Outcome": "inactive"}
{"gene": "Dio2 (GeneID 13371)", "reagent no.": 2, "GFP, % of control": 67.4, "viability (ATP), % of control": 81.1, "Outcome": "inactive"}
{"gene": "Dio2 (GeneID 13371)", "reagent no.": 3, "GFP, % of control": 41.4, "viability (ATP), % of control": 62.7, "Outcome": "inactive"}
{"gene": "Rho (GeneID 212541)", "reagent no.": 1, "GFP, % of control": 36.7, "viability (ATP), % of control": 38.1, "Outcome": "inactive"}
{"gene": "Rho (GeneID 212541)", "reagent no.": 2, "GFP, % of control": 78, "viability (ATP), % of control": 89.8, "Outcome": "inactive"}
{"gene": "Rho (GeneID 212541)", "reagent no.": 3, "GFP, % of control": 53.9, "viability (ATP), % of control": 90.1, "Outcome": "inactive"}
{"gene": "Slc6a1 (GeneID 232333)", "reagent no.": 1, "GFP, % of control": 79.4, "viability (ATP), % of control": 63.5, "Outcome": "inactive"}
{"gene": "Slc6a1 (GeneID 232333)", "reagent no.": 2, "GFP, % of control": 109, "viability (ATP), % of control": 61.4, "Outcome": "inactive"}
{"gene": "Slc6a1 (GeneID 232333)", "reagent no.": 3, "GFP, % of control": 104, "viability (ATP), % of control": 65, "Outcome": "inactive"}
{"gene": "F830104G03Rik (GeneID 619322)", "reagent no.": 1, "GFP, % of control": 86.1, "viability (ATP), % of control": 111, "Outcome": "inactive"}
{"gene": "F830104G03Rik (GeneID 619322)", "reagent no.": 2, "GFP, % of control": 92.3, "viability (ATP), % of control": 76.4, "Outcome": "inactive"}
{"gene": "F830104G03Rik (GeneID 619322)", "reagent no.": 3, "GFP, % of control": 70.1, "viability (ATP), % of control": 55, "Outcome": "inactive"}
{"gene": "Mtrr (GeneID 210009)", "reagent no.": 1, "GFP, % of control": 90.5, "viability (ATP), % of control": 98.8, "Outcome": "inactive"}
{"gene": "Mtrr (GeneID 210009)", "reagent no.": 2, "GFP, % of control": 50.8, "viability (ATP), % of control": 77.7, "Outcome": "inactive"}
{"gene": "Mtrr (GeneID 210009)", "reagent no.": 3, "GFP, % of control": 45.3, "viability (ATP), % of control": 54.1, "Outcome": "inactive"}
{"gene": "Zc2hc1a (GeneID 67306)", "reagent no.": 1, "GFP, % of control": 23.4, "viability (ATP), % of control": 24.4, "Outcome": "inactive"}
{"gene": "Zc2hc1a (GeneID 67306)", "reagent no.": 2, "GFP, % of control": 86.4, "viability (ATP), % of control": 76.7, "Outcome": "inactive"}
{"gene": "Zc2hc1a (GeneID 67306)", "reagent no.": 3, "GFP, % of control": 83.1, "viability (ATP), % of control": 105, "Outcome": "inactive"}

5 of these entries, set out differently:
gene,reagent no.,"GFP, % of control","viability (ATP), % of control",Outcome
Or5h17 (GeneID 258478),1,59.5,92.4,inactive
Or5h17 (GeneID 258478),2,36.2,29.9,inactive
Or5h17 (GeneID 258478),3,43.8,103,inactive
Pirt (GeneID 193003),1,49.9,41.2,inactive
Pirt (GeneID 193003),2,73.2,73.6,inactive

Next records follow.
{"gene": "Pou3f3 (GeneID 18993)", "reagent no.": 1, "GFP, % of control": 80.7, "viability (ATP), % of control": 111, "Outcome": "inactive"}
{"gene": "Pou3f3 (GeneID 18993)", "reagent no.": 2, "GFP, % of control": 56.1, "viability (ATP), % of control": 73.1, "Outcome": "inactive"}
{"gene": "Pou3f3 (GeneID 18993)", "reagent no.": 3, "GFP, % of control": 49.9, "viability (ATP), % of control": 68.3, "Outcome": "inactive"}
{"gene": "Zbtb40 (GeneID 230848)", "reagent no.": 1, "GFP, % of control": 44, "viability (ATP), % of control": 54.2, "Outcome": "inactive"}
{"gene": "Zbtb40 (GeneID 230848)", "reagent no.": 2, "GFP, % of control": 58.6, "viability (ATP), % of control": 60.4, "Outcome": "inactive"}
{"gene": "Helb (GeneID 117599)", "reagent no.": 1, "GFP, % of control": 68.7, "viability (ATP), % of control": 74.8, "Outcome": "inactive"}
{"gene": "Helb (GeneID 117599)", "reagent no.": 2, "GFP, % of control": 57, "viability (ATP), % of control": 59, "Outcome": "inactive"}
{"gene": "Helb (GeneID 117599)", "reagent no.": 3, "GFP, % of control": 113, "viability (ATP), % of control": 82.6, "Outcome": "inactive"}
{"gene": "Adtrp (GeneID 109254)", "reagent no.": 1, "GFP, % of control": 89, "viability (ATP), % of control": 81.2, "Outcome": "inactive"}
{"gene": "Adtrp (GeneID 109254)", "reagent no.": 2, "GFP, % of control": 115, "viability (ATP), % of control": 71.8, "Outcome": "inactive"}
{"gene": "Adtrp (GeneID 109254)", "reagent no.": 3, "GFP, % of control": 69.7, "viability (ATP), % of control": 81.5, "Outcome": "inactive"}
{"gene": "Tpd52l2 (GeneID 66314)", "reagent no.": 1, "GFP, % of control": 41.9, "viability (ATP), % of control": 47.9, "Outcome": "inactive"}
{"gene": "Tpd52l2 (GeneID 66314)", "reagent no.": 2, "GFP, % of control": 78.7, "viability (ATP), % of control": 87.7, "Outcome": "inactive"}
{"gene": "Tpd52l2 (GeneID 66314)", "reagent no.": 3, "GFP, % of control": 120, "viability (ATP), % of control": 163, "Outcome": "active"}
{"gene": "Map10 (GeneID 74393)", "reagent no.": 1, "GFP, % of control": 86.4, "viability (ATP), % of control": 114, "Outcome": "inactive"}
{"gene": "Map10 (GeneID 74393)", "reagent no.": 2, "GFP, % of control": 69, "viability (ATP), % of control": 95.8, "Outcome": "inactive"}
{"gene": "Map10 (GeneID 74393)", "reagent no.": 3, "GFP, % of control": 99.9, "viability (ATP), % of control": 144, "Outcome": "inactive"}
